{"sequences": {"note": "Sequences of proteins named here, by UniProt entry; tags and fusion partners are left off.", "UniProt Q9Y297": "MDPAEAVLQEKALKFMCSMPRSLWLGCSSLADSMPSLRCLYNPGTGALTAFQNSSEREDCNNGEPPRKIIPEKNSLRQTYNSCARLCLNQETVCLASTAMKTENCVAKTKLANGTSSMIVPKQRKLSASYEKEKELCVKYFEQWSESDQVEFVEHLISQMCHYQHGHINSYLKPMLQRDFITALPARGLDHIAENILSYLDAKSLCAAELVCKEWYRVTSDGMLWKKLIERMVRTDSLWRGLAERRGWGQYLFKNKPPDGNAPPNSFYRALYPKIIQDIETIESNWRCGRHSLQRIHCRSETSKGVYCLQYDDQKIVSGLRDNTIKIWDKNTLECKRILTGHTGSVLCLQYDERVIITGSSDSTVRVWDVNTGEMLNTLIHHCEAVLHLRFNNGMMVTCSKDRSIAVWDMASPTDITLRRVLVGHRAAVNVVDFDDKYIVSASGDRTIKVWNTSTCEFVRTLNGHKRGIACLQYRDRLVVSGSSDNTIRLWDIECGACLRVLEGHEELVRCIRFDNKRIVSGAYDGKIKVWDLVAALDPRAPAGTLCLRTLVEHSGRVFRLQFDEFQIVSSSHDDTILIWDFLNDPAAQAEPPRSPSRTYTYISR"}, "source": "paper PMC12517396", "target": "T1, Tumor necrosis factor-α induced protein 8 like-2 (TIPE2) (human (endogenous in BEAS-2B)) (UniProt Q6P589)", "T1 sequence": "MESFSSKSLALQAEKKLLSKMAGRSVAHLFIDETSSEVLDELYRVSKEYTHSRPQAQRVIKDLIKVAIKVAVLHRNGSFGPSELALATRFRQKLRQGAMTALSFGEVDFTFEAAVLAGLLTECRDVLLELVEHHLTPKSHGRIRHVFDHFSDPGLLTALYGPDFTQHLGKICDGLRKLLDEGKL", "test": "co-IP; BEAS-2B cell lysate in Co-IP buffer (120 mM NaCl, 40 mM HEPES pH 7.4, 0.3% CHAPS), primary antibody 1 h, Protein A-Sepharose overnight at 4°C, 5 washes, western blot", "note": "No constants are given. Whether binding was seen depends on the method and setting. Binding seen in cells or lysates may run through a third protein. Some entries that bind do so weakly or less than the wild type."}
{"substance": "E3 ubiquitin ligase β-Transducin Repeat-containing protein (FBW1A) (from UniProt Q9Y297 1-605)", "values": [{"measurement": "binding", "result": "binds"}]}
